Results are given in words; binding and its absence hold for the method and conditions named. Some binding calls cover weakened binding; strength is not graded here.
Target: CD44 of SKOV3 cells (human) (UniProt P16070)
Experiment: non-reducing immunoblot with B-F24 of SKOV3 cells cultured 20 hr with 1 or 10 µM Å6 (CD44 self-association)

Chains of the proteins cited; added tags and fusions are not shown. Residues count along the entry.
UniProt P16070, residues 21-742: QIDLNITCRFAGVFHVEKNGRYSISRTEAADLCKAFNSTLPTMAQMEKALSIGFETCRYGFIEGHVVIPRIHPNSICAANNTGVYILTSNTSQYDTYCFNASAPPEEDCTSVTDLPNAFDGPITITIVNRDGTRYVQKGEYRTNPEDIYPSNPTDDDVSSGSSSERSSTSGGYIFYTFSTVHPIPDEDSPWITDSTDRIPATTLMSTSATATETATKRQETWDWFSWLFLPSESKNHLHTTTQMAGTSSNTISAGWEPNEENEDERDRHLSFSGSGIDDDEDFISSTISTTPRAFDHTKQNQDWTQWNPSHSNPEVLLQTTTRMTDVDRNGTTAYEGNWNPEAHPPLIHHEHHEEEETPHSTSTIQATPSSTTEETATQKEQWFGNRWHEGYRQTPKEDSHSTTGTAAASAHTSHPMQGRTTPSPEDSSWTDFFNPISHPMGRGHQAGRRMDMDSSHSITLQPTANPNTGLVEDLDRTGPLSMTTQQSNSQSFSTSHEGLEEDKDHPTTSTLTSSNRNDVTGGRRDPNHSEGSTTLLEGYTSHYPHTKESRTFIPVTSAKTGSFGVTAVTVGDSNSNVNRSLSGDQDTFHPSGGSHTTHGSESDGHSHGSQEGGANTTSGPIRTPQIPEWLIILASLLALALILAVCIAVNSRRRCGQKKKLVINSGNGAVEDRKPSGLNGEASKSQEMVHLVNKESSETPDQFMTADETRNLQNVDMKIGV

binding: binds
Substance: CD44 of SKOV3 cells (from UniProt P16070 21-742) (receptor)
